Test results reported in the supplement of paper PMC10032668.
Some of the results follow. Only hits are listed; about a third recur on repeated control peptides.

Protein sequences, listed by entry. Tags and fused reporters are not part of them.
KPNA1, P52294, UniProt P52294, whole entry: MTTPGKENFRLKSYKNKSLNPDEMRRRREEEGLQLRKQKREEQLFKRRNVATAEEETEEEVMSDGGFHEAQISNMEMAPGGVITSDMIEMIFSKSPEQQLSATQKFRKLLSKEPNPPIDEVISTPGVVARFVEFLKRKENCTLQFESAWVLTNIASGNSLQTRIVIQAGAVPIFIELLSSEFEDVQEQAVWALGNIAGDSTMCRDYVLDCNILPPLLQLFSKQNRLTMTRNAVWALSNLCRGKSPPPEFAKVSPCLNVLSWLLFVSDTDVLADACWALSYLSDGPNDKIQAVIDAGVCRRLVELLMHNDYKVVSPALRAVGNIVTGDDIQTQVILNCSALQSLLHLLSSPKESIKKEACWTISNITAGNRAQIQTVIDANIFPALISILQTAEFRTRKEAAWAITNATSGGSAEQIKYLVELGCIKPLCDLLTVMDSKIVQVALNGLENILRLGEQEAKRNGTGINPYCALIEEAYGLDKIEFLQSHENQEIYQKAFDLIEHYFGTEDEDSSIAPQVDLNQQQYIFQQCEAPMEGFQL
NDUFV1, P49821, UniProt P49821, whole entry: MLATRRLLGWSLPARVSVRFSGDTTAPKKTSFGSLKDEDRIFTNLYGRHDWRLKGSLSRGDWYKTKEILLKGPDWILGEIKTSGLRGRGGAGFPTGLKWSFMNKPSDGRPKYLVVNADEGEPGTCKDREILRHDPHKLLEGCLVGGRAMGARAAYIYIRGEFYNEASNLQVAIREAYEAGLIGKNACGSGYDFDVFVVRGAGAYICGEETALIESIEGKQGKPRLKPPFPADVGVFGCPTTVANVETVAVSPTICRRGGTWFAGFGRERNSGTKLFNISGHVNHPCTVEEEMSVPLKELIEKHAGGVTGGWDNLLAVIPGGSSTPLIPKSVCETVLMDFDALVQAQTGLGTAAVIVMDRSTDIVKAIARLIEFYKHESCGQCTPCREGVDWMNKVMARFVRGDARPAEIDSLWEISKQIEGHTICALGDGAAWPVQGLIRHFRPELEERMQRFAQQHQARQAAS
PSMD14, O00487, UniProt O00487, whole entry: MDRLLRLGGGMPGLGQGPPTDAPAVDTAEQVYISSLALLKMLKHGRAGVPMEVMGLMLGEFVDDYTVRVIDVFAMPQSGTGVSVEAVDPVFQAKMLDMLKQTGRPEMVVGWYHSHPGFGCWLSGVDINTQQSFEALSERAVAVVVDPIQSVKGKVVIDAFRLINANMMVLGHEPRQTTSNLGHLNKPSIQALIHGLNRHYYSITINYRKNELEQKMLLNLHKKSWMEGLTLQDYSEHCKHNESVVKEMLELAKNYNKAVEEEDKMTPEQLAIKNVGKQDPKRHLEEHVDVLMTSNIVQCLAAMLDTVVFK
SERPINA1, P01009, UniProt P01009, whole entry: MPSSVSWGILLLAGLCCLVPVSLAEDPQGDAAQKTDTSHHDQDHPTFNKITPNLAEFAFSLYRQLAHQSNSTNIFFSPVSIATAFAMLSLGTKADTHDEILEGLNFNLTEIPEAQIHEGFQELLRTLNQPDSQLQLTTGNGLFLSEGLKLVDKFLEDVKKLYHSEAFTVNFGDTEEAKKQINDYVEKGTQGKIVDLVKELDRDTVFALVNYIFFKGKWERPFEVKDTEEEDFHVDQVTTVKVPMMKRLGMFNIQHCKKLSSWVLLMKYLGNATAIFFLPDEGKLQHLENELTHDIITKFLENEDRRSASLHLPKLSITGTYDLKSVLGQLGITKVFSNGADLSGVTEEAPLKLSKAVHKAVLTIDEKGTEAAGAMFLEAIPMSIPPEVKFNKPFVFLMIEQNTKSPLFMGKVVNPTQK
SMN2, Q16637, UniProt Q16637, whole entry: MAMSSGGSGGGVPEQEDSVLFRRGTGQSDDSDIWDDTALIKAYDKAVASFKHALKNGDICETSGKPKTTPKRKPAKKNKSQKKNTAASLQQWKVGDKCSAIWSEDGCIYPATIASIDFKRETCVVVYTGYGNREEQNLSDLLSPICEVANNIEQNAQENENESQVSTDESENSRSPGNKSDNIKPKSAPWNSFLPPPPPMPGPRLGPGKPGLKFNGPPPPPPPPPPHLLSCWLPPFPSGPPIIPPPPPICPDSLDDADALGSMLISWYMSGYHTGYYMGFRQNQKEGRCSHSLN
YY1, P25490, UniProt P25490, whole entry: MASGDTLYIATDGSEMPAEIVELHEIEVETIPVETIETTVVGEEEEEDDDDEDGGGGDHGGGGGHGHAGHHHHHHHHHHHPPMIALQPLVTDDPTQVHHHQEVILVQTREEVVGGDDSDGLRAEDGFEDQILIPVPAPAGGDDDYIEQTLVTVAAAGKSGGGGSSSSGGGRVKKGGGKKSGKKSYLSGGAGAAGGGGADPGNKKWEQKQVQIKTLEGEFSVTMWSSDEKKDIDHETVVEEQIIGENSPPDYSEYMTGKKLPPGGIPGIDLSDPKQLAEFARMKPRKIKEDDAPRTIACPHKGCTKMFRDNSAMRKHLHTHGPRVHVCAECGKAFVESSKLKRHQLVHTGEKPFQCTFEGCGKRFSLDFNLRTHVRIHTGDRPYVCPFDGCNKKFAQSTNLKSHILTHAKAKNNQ

What was measured:
Experiment in all cases: PRISMA enrichment of interactor (LFQ) in peptide spot vs all other peptide spots (log2 fold change); higher = stronger / more specific binding of the interactor to the peptide
AK4, P27144 = target: AK4, P27144
Experimental: (§1)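 PRISMA: 15-aa overlapping tiles (offset 8 aa) of 60 microproteins, plus SOS1/GLUT1 control peptides, were spot-synthesized on cellulose membranes in triplicate. Membranes were incubated with benzonase-treated HEK293T lysate, and bound proteins were identified by LC-MS/MS with LFQ. Enrichment is the log2 fold change of each protein in one spot versus all other spots. Only interactors passing the significance cutoff are listed.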

ARF5, P84085 = target: ARF5, P84085
Experimental: as §1

ARMC6, Q6NXE6 = target: ARMC6, Q6NXE6
Experimental: as §1

CDC40, O60508 = target: CDC40, O60508
Experimental: as §1

CHTOP, Q9Y3Y2 = target: CHTOP, Q9Y3Y2
Experimental: as §1

DDX49, Q9Y6V7 = target: DDX49, Q9Y6V7
Experimental: as §1

DLGAP5, Q15398 = target: DLGAP5, Q15398
Experimental: as §1

ETFA, P13804 = target: ETFA, P13804
Experimental: as §1

GNPDA1, P46926 = target: GNPDA1, P46926
Experimental: as §1

KPNA1, P52294 = target: KPNA1, P52294
Experimental: as §1

LETMD1, Q6P1Q0 = target: LETMD1, Q6P1Q0
Experimental: as §1

MRPS5, P82675 = target: MRPS5, P82675
Experimental: as §1

MUC19, Q7Z5P9 = target: MUC19, Q7Z5P9
Experimental: as §1

NDUFV1, P49821 = target: NDUFV1, P49821
Experimental: as §1

NNT, Q13423 = target: NNT, Q13423
Experimental: as §1

PAWR, Q96IZ0 = target: PAWR, Q96IZ0
Experimental: as §1

PICALM, Q13492 = target: PICALM, Q13492
Experimental: as §1

PSMD14, O00487 = target: PSMD14, O00487
Experimental: as §1

RPL39P5, Q59GN2 = target: RPL39P5, Q59GN2
Experimental: as §1

SERPINA1, P01009 = target: SERPINA1, P01009
Experimental: as §1

SUPT6H, Q7KZ85 = target: SUPT6H, Q7KZ85
Experimental: as §1

TOP1, P11387 = target: TOP1, P11387
Experimental: as §1

UCK2, Q9BZX2 = target: UCK2, Q9BZX2
Experimental: as §1

VWA8, A3KMH1 = target: VWA8, A3KMH1
Experimental: as §1

BZW1, Q7L1Q6 = target: BZW1, Q7L1Q6
Experimental: as §1

CCDC59, Q9P031 = target: CCDC59, Q9P031
Experimental: as §1

CHAMP1, Q96JM3 = target: CHAMP1, Q96JM3
Experimental: as §1

FADS1, O60427 = target: FADS1, O60427
Experimental: as §1

FUBP3, Q96I24 = target: FUBP3, Q96I24
Experimental: as §1

HIRIP3, Q9BW71 = target: HIRIP3, Q9BW71
Experimental: as §1

HMGN2, P05204 = target: HMGN2, P05204
Experimental: as §1

HMGN4, O00479 = target: HMGN4, O00479
Experimental: as §1

HSDL1, Q3SXM5 = target: HSDL1, Q3SXM5
Experimental: as §1

MARCKS, P29966 = target: MARCKS, P29966
Experimental: as §1

MRPL11, Q9Y3B7 = target: MRPL11, Q9Y3B7
Experimental: as §1

MTPAP, Q9NVV4 = target: MTPAP, Q9NVV4
Experimental: as §1

NOP56, O00567 = target: NOP56, O00567
Experimental: as §1

PCM1, Q15154 = target: PCM1, Q15154
Experimental: as §1

PPHLN1, Q8NEY8 = target: PPHLN1, Q8NEY8
Experimental: as §1

PSMD8, P48556 = target: PSMD8, P48556
Experimental: as §1

RAB2A, P61019 = target: RAB2A, P61019
Experimental: as §1

RABL3, Q5HYI8 = target: RABL3, Q5HYI8
Experimental: as §1

SF3A1, Q15459 = target: SF3A1, Q15459
Experimental: as §1

SF3B4, Q15427 = target: SF3B4, Q15427
Experimental: as §1

SF3B5, Q9BWJ5 = target: SF3B5, Q9BWJ5
Experimental: as §1

SMN2, Q16637 = target: SMN2, Q16637
Experimental: as §1

TFIP11, Q9UBB9 = target: TFIP11, Q9UBB9
Experimental: as §1

THOC3, Q96J01 = target: THOC3, Q96J01
Experimental: as §1

YY1, P25490 = target: YY1, P25490
Experimental: as §1

WLGTPPLLREMSMDS [NAV2-AS2]
PRISMA enrichment of interactor (log2) (AK4, P27144): 8.1
PRISMA enrichment of interactor (log2) (ARF5, P84085): 4.22
PRISMA enrichment of interactor (log2) (ARMC6, Q6NXE6): 5.21
PRISMA enrichment of interactor (log2) (CDC40, O60508): 3.99
PRISMA enrichment of interactor (log2) (CHTOP, Q9Y3Y2): 5.37
PRISMA enrichment of interactor (log2) (DDX49, Q9Y6V7): 5.22
PRISMA enrichment of interactor (log2) (DLGAP5, Q15398): 5.18
PRISMA enrichment of interactor (log2) (ETFA, P13804): 5.64
PRISMA enrichment of interactor (log2) (GNPDA1, P46926): 5.68
PRISMA enrichment of interactor (log2) (KPNA1, P52294): 5.13
PRISMA enrichment of interactor (log2) (LETMD1, Q6P1Q0): 3.98
PRISMA enrichment of interactor (log2) (MRPS5, P82675): 6.98
PRISMA enrichment of interactor (log2) (MUC19, Q7Z5P9): 8.28
PRISMA enrichment of interactor (log2) (NDUFV1, P49821): 4.8
PRISMA enrichment of interactor (log2) (NNT, Q13423): 4.04
PRISMA enrichment of interactor (log2) (PAWR, Q96IZ0): 4.53
PRISMA enrichment of interactor (log2) (PICALM, Q13492): 10.2
PRISMA enrichment of interactor (log2) (PSMD14, O00487): 4.26
PRISMA enrichment of interactor (log2) (RPL39P5, Q59GN2): 4.87
PRISMA enrichment of interactor (log2) (SERPINA1, P01009): 4.26
PRISMA enrichment of interactor (log2) (SUPT6H, Q7KZ85): 5.63
PRISMA enrichment of interactor (log2) (TOP1, P11387): 6.89
PRISMA enrichment of interactor (log2) (UCK2, Q9BZX2): 5.52
PRISMA enrichment of interactor (log2) (VWA8, A3KMH1): 3.94

SVKFQSQSKQKSIEE [MKKS_2]
PRISMA enrichment of interactor (log2) (AK4, P27144): 4.65
PRISMA enrichment of interactor (log2) (BZW1, Q7L1Q6): 6
PRISMA enrichment of interactor (log2) (CCDC59, Q9P031): 5.88
PRISMA enrichment of interactor (log2) (CHAMP1, Q96JM3): 7.14
PRISMA enrichment of interactor (log2) (FADS1, O60427): 4.06
PRISMA enrichment of interactor (log2) (FUBP3, Q96I24): 4.91
PRISMA enrichment of interactor (log2) (HIRIP3, Q9BW71): 6.25
PRISMA enrichment of interactor (log2) (HMGN2, P05204): 5.1
PRISMA enrichment of interactor (log2) (HMGN4, O00479): 4.4
PRISMA enrichment of interactor (log2) (HSDL1, Q3SXM5): 5.09
PRISMA enrichment of interactor (log2) (MARCKS, P29966): 4.3
PRISMA enrichment of interactor (log2) (MRPL11, Q9Y3B7): 5.86
PRISMA enrichment of interactor (log2) (MTPAP, Q9NVV4): 6.61
PRISMA enrichment of interactor (log2) (NOP56, O00567): 8.64
PRISMA enrichment of interactor (log2) (PCM1, Q15154): 5.21
PRISMA enrichment of interactor (log2) (PPHLN1, Q8NEY8): 5.24
PRISMA enrichment of interactor (log2) (PSMD8, P48556): 5.52
PRISMA enrichment of interactor (log2) (RAB2A, P61019): 5.36
PRISMA enrichment of interactor (log2) (RABL3, Q5HYI8): 6.49
PRISMA enrichment of interactor (log2) (SF3A1, Q15459): 4.86
PRISMA enrichment of interactor (log2) (SF3B4, Q15427): 4.2
PRISMA enrichment of interactor (log2) (SF3B5, Q9BWJ5): 4.3
PRISMA enrichment of interactor (log2) (SMN2, Q16637): 4.05
PRISMA enrichment of interactor (log2) (TFIP11, Q9UBB9): 4.94
PRISMA enrichment of interactor (log2) (THOC3, Q96J01): 4.83
PRISMA enrichment of interactor (log2) (YY1, P25490): 10.1
